From PubChem BioAssay AID1487 (National Center for Advancing Translational Sciences (NCATS), 2009)
The other results are listed elsewhere or left out. Further columns of the screen follow, without active or inactive calls. Compounds called inactive in the main read-out are mostly missing here. Words in brackets tell the shape of the fitted curve; partial curves, single points and poor fits give uncertain potencies.

Assay: qHTS Assay for Modulators of Lamin A Splicing
Details: HeLa LMNA splicing GFP/RFP minigene ratio, 48 h
Outline: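 S3 HeLa stable clones carrying a lamin A-EGFP splicing minigene plus DsRed2 were seeded at 600 cells/well in Opti-MEM with 2% FBS, pin-dosed and incubated 48 h at 37°C. Acumen cytometry (488 nm) gave the GFP/RFP total-intensity ratio.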

[1] = measured here: GFP splicing reporter channel
[2] = measured here: RFP viability control channel

| Compound | AC50 [1] | AC50 [2] |
| --- | --- | --- |
| N#Cc1cc(C(=O)c2cc(Cl)ccc2O)cn(CC2CCCO2)c1=O (configuration not stated) | 0.141 µM [rising, full curve, poor fit] | 35.5 µM [rising, single point] |
| Cc1cnc(C(=O)OCC(=O)Nc2ccc(C)c(S(=O)(=O)N3CCCCCC3)c2)cn1 | 5.62 µM [falling, partial curve, poor fit] | – |
| Cc1cc([N+](=O)[O-])nn1CCCC(=O)Nc1ccc(Cl)cc1Cl | 0.501 µM [rising, full curve, poor fit] | 0.447 µM [rising, full curve, poor fit] |
| O=C(c1ccc(Cl)cc1)c1nnc(-c2ccncc2)o1 | – | 22.4 µM [rising, partial curve, poor fit] |
| CC(C)OC(=O)/C(=C\c1cccnc1)NC(=O)c1ccccc1 | 0.355 µM [falling, full curve, poor fit] | 5.62 µM [falling, partial curve, poor fit] |
| COc1cc(-c2nn3c(Cc4ccccc4)nnc3s2)cc(OC)c1OC | – | 17.8 µM [rising, partial curve] |
| COCCn1c(SCC(=O)NNC(=O)c2ccccc2)nc2ccccc2c1=O | – | 12.6 µM [rising, single point] |
| COC(=O)c1sccc1NC(=S)Nc1cc(OC)ccc1OC | – | 6.31 µM [falling, single point] |
| Cc1cc(=O)c(C(=O)O)cn1-c1ccc(C(C)C)cc1 | – | 20 µM [falling, partial curve] |
| COc1ccc(/C(N)=N/OC(=O)Cc2ccc(OC)c(OC)c2)cc1 | 6.31 µM [rising, full curve] | 7.08 µM [rising, full curve] |
| Fc1ccc(-c2nc(-c3cccs3)[nH]c2-c2ccc(F)cc2)cc1 | – | 14.1 µM [rising, partial curve] |
| CN(c1ccccc1)S(=O)(=O)c1cccc(NC(=O)CSc2nncn2C)c1 | – | 0.0891 µM [rising, full curve] |
| O=C(NCC(c1cccnc1)N1CCc2ccccc21)c1ccc(Cl)cc1 (configuration not stated) | 10 µM [rising, partial curve, poor fit] | 5.01 µM [rising, partial curve] |
| Cc1ccc(-n2ncc(C(=O)NCCN3CCC(Cc4ccccc4)CC3)c2C2CCN(C(=O)OC(C)(C)C)CC2)cc1 | 14.1 µM [falling, partial curve] | 14.1 µM [falling, partial curve] |
| COc1ccc(NC2=C(Cl)C(=O)N(CCc3ccccc3)C2=O)c(OC)c1 | – | 17.8 µM [rising, single point] |
| COc1cc(C(=O)Oc2cccc(Nc3ncnc4ccccc34)c2)cc(OC)c1OC | 3.55 µM [rising, full curve] | – |
| Cc1ccc(NC(=O)COC(=O)c2csc3c2CCC(C)C3)cc1S(=O)(=O)N1CCCCC1 (configuration not stated) | 11.2 µM [rising, partial curve] | 15.8 µM [rising, single point] |

Molecules above with an aryl methoxy group, in the order listed:

| Compound | AC50 [1] | AC50 [2] |
| --- | --- | --- |
| COc1cc(-c2nn3c(Cc4ccccc4)nnc3s2)cc(OC)c1OC | – | 17.8 µM [rising, partial curve] |
| COC(=O)c1sccc1NC(=S)Nc1cc(OC)ccc1OC | – | 6.31 µM [falling, single point] |
| COc1ccc(/C(N)=N/OC(=O)Cc2ccc(OC)c(OC)c2)cc1 | 6.31 µM [rising, full curve] | 7.08 µM [rising, full curve] |
| COc1ccc(NC2=C(Cl)C(=O)N(CCc3ccccc3)C2=O)c(OC)c1 | – | 17.8 µM [rising, single point] |
| COc1cc(C(=O)Oc2cccc(Nc3ncnc4ccccc34)c2)cc(OC)c1OC | 3.55 µM [rising, full curve] | – |

(continued)

| Compound | AC50 [1] | AC50 [2] |
| --- | --- | --- |
| COc1ccc(N(CC(=O)NCc2ccccc2OC)S(=O)(=O)c2ccccc2[N+](=O)[O-])c(OC)c1 | 10 µM [falling, partial curve, poor fit] | 5.62 µM [falling, partial curve, poor fit] |
| CSc1ncc(Cl)c(C(=O)Nc2nnc(SC/C=C/c3ccccc3)s2)n1 | 12.6 µM [rising, single point] | 17.8 µM [rising, single point] |
| CCC1=C(C)CN(C(=O)NCCc2ccc(S(=O)(=O)NC(=O)NC3CCC(C)CC3)cc2)C1=O (configuration not stated) | 0.224 µM [falling, full curve, poor fit] | – |
| CCOC(=O)c1c(-c2ccc(OC)cc2)csc1NC(=O)CSc1ccccc1 | – | 11.2 µM [rising, single point] |
| O=C(Cc1ccc(-c2ccccc2)cc1)NCCS(=O)(=O)N1CCN(c2ccccc2F)CC1 | – | 12.6 µM [rising, partial curve] |
| NS(=O)(=O)c1ccc(NC(=O)COC(=O)CCC2CCCC2)cc1 | 0.708 µM [rising, single point] | – |
| CCOc1ccc2nc(NC3=NC(C)(C)C=C(C)N3)nc(C)c2c1 | – | 35.5 µM [rising, single point] |
| CCCC(=O)N1CCN(c2nc(CC(C)C)c3c(c2C#N)CCC3)CC1 | 15.8 µM [rising, single point] | 20 µM [rising, single point] |
| CCN(Cc1ccccc1)S(=O)(=O)c1ccc2c(c1)NC(=O)CC(=O)N2 | – | 1.41 µM [rising, partial curve, poor fit] |
| O=C(Nc1ccccc1C(=O)N1CCCCC1)c1nsc2ccccc12 | 0.631 µM [rising, full curve, poor fit] | 0.794 µM [rising, full curve, poor fit] |
| CCOC(=O)N1CCC(NC(=O)C2CCC(CNS(=O)(=O)c3ccc(OC)cc3)CC2)CC1 (configuration not stated) | 6.31 µM [rising, single point] | 4.47 µM [rising, single point] |
| c1ccc(-c2nc3nonc3c3nc4ccccc4n23)cc1 | – | 22.4 µM [rising, single point] |
| Cc1sc2ncnc(OCC(=O)c3ccc(S(=O)(=O)N4CCCC4)cc3)c2c1C | 15.8 µM [rising, partial curve] | 15.8 µM [rising, partial curve] |
| O=C(NC(CO)C(O)c1ccc([N+](=O)[O-])cc1)C(Cl)Cl (configuration not stated) | 0.000891 µM [falling, full curve, poor fit] | – |
| O=C(/C=C/c1ccco1)OCc1nnc(-c2ccc(Cl)cc2)o1 | – | 28.2 µM [falling, partial curve] |
| O=C(Cn1c(=O)nc(-c2ccccc2)c2cc(Cl)ccc21)NCCc1ccccc1 | – | 0.158 µM [falling, full curve, poor fit] |
| CC(=O)N/N=C/c1cc2c(cc1[N+](=O)[O-])OCO2 | 0.0158 µM [falling, full curve] | – |
